Results published in patent US20060257410A1 (CHEMOCENTRYX, published 2006).
Results are given in words; binding and its absence hold for the method and conditions named. Some entries that bind do so weakly or less than the wild type. Values belong to the binder of their own block, whether it stands above or below them.

Protein sequences, listed by entry. Tags and fused reporters are not part of them.
UniProt P25106: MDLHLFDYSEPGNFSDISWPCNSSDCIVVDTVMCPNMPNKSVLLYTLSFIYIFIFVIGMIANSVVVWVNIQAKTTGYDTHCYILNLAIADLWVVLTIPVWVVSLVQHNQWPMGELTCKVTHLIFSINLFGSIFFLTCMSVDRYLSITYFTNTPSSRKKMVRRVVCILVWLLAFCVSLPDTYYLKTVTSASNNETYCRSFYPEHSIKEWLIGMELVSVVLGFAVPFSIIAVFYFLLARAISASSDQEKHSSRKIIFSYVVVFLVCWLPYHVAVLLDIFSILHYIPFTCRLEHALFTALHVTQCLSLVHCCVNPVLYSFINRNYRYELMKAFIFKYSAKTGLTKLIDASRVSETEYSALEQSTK

Key:
human CCX-CKR2 (human) [1] = biological target: human CCX-CKR2 (human) (UniProt P25106); test: immunohistochemical staining of cytospins
human CCX-CKR2 (human) [2] = biological target: human CCX-CKR2 (human) (UniProt P25106); test: radioligand competitive binding assay; competitors SDF-1 and I-TAC
human CCX-CKR2 (human) [3] = biological target: human CCX-CKR2 (human) (UniProt P25106); test: flow cytometry on transfectant cell lines and on HeLa and MCF-7 cells
human CCX-CKR2 (human) [4] = biological target: human CCX-CKR2 (human) (UniProt P25106); test: radioligand competitive binding assay; competitors SDF-1 and I-TAC; 11G8 typically exhibited a greater percentage inhibition than 6E10

- binding (human CCX-CKR2 (human) [1]): binds
- binding (human CCX-CKR2 (human) [2]): binds
- binding (human CCX-CKR2 (human) [3]): binds
B1: monoclonal antibody 6E10 (antibody, V domains shown)
VH: EVKLDETGGGLVQPGRPMKLSCVASGFTFSDYWMNWVRQSPEKGLEWVGQIRNKPYNYETYYSDSVKGRFTISRDDSKSSVYLQMNNLRTEDTGIYYCTSLRYWGQGTLVTVSA
VL: DIVMTQSPSSLTVTAGEKVTMSCKSSHSLLNSGIQKNFLTWYQQKPGQPPKVLIYWAFTRESGVPERFTGSGSGTDFTLTISSVQAEDLAVYYCQSDYTYPFTFGSGTKLEIKR
notes: Mouse hybridoma monoclonal antibody raised by gene gun inoculation with CCX-CKR2 cDNA

- binding (human CCX-CKR2 (human) [1]): binds
- binding (human CCX-CKR2 (human) [3]): binds
- binding (human CCX-CKR2 (human) [4]): binds
B2: monoclonal antibody 11G8 (antibody, V domains shown)
VH: EVKLVESGGDLVQPGGSLKLSCATSGFTFSDYYMFWVRQTPEKRLEWVAYITNGGDRSYYSDTVTGRFIISRDNAKNTLYLQMSRLKSEDTAMYYCARQGNWAAWFVYWGQGTLVTVSA
VL: DVLMTQTPLSLPVSLGDQASISCRSSHYIVHSDGNTYLEWYLQKPGQSPKLLIYKVSNRFSGVPDRFSGSGSGTDFTLKISRVEAEDLGIYYCFQGSHVPLTFGAGTKLELKR
notes: as for B1
